Patent US4145337A (Hoffmann-La Roche Inc., priority 1977, dated 1979)
HELM strings list residues between dots; [ac] is acetyl, [am] amide, other brackets name non-standard units.

Key:
[1] = general procedure: peptide synthesis; hydroxymethyl resin made from 1% cross-linked chloromethylated polystyrene-divinylbenzene resin (200-400 mesh); 0.90 mmol; DCC (symmetrical anhydride method); azide and N-hydroxysuccinimide ester couplin; conditions: for oxidative folding yield: oxidative folding step
[2] = Boc solid-phase peptide synthesis; Aeg(Z)-hydroxymethyl resin; DCC (symmetrical anhydride method); azide and N-hydroxysuccinimide ester couplin; conditions: whole synthesis
[3] = Boc solid-phase peptide synthesis; hydroxymethyl resin; DCC (symmetrical anhydride method); azide and N-hydroxysuccinimide ester couplin; conditions: whole synthesis

In the case of “Aminoethylglycyl-L-alanyl-glycyl-L-cysteinyl-L-lysyl-L-asparaginyl-L-phenylalanyl-L-phenylalanyl-L-tryptophyl-L-lysyl-L-threonyl-L-phenylalanyl-L-threonyl-L-seryl-L-cysteine”, the step yield ([1]; late stage modification step) was 41.7%.
“Aminoethylglycyl-L-cysteinyl-L-lysyl-L-asparaginyl-L-phenylalanyl-L-phenylalanyl-D-tryptophyl-L-lysyl-L-threonyl-L-phenylalanyl-L-threonyl-L-seryl-L-cysteinyl-aminoethylglycine” gave a crude mass ([2]; scale 0.734 mmole) of 1.09 g.
Substance “Aminoethylglycyl-L-cysteinyl-L-lysyl-L-asparaginyl-L-phenylalanyl-L-phenylalanyl-L-tryptophyl-L-lysyl-L-threonyl-L-phenylalanyl-L-threonyl-L-seryl-L-cysteinyl-aminoethylglycine” has a crude mass ([2]; scale 0.734 mmol) of 1.22 g.
Work on “Aminoethylglycyl-aminoethylglycyl-L-cysteinyl-L-lysyl-L-asparaginyl-L-phenylalanyl-L-phenylalanyl-D-tryptophyl-L-lysyl-L-threonyl-L-phenylalanyl-L-threonyl-L-seryl-L-cysteine(oxidized form)” yielded an oxidative folding yield ([1]; on reduced linear peptide) of 62%.
For “Aminoethylglycyl-aminoethylglycyl-L-cysteinyl-L-lysyl-L-asparaginyl-L-phenylalanyl-L-phenylalanyl-D-tryptopyl-L-lysyl-L-threonyl-L-phenylalanyl-L-threonyl-L-seryl-L-cysteine”, the crude mass ([3]; scale .773 mmol) was 915 mg.
For “Cyclo [Aminoethylglycyl-L-lysyl-L-asparaginyl-L-phenylalanyl-L-phenylalanyl-L-tryptophyl-L-lysyl-L-threonyl-L-phenylalanyl-L-threonyl-L-seryl]”, the step yield ([1]; late stage modification step) was 30.7%.
With “L-Cysteinyl-L-lysyl-L-asparaginyl-L-phenylalanyl-L-phenylalanyl-D-tryptophyl-L-lysyl-L-threonyl-L-phenylalanyl-L-threonyl-L-seryl-L-cysteinyl-aminoethylglycine” the crude mass ([2]; scale .734 mmol) was 0.906 g.
Work on “L-Tryptophyl-N-ε-t-butyloxycarbonyl-L-lysyl-O-t-butyl-L-threonyl-L- phenylalanyl-O-t-butyl-L-threonyl-O-t-butyl-L-serine methyl ester.multidot.HCl” yielded a step yield ([1]; late stage modification step) of 89.8%.
Substance “L-tryptophyl-N^ε-t-butyloxycarbonyl-L-lysyl-O-t-butyl-L-threonyl-L-phenylalanyl-O-t-butyl-L-seryl-S-acetamidomethyl-L-cysteine” has a step yield ([1]; late stage modification step) of 75.2%.
Substance “N-[2-(p-Biphenylyl)-2-propyloxycarbonyl]-L-tryptophyl-N^ε -t-butyloxycarbonyl-L-lysyl-O-t-butyl-L-threonyl-L-phenylalanyl-O-t-butyl- L-threonyl-O-t-butyl-L-serine hydrazide” has a step yield ([1]; late stage modification step) of 88.2%.
For “N-[2-(p-Biphenylyl)-2-propyloxycarbonyl]-L-tryptophyl-N^ε -t-butyloxycarbonyl-L-lysyl-O-t-butyl-L-threonyl-L-phenylalanyl-O-t-butyl- L-threonyl-O-t-butyl-L-seryl-S-acetamidomethyl-L-cysteine”, the step yield ([1]; coupling step) was 74.8%.
“N-[2-(p-Biphenylyl)-2-propyloxycarbonyl]-S-acetamidomethyl-L-cysteinyl-N-ε-t-butyloxycarbonyl-L-lysyl-L-asparaginyl-L-phenylalanyl-L-phenylalanine hydrazide” gave a step yield ([1]; late stage modification step) of 93.1%.
“N-[2-(p-Biphenylyl)-2-propyloxycarbonyl]-S-acetamidomethyl-L-cysteinyl-N-ε-t-butyloxycarbonyl-L-lysyl-L-asparaginyl-L-phenylalanyl-L-phenylalanine methyl ester” showed a step yield ([1]; coupling step) of 65.4%.
For “N-α-Benzyloxycarbonyl-N-ε-t-butyloxycarbonyl-L-lysyl-L-asparaginyl-L-phenylalanyl-L-phenylalanyl-L-tryptophyl-N-ε-t-butyloxycarbonyl-L-lysyl-O-t-butyl-L-threonyl-L-phenylalanyl-O-t-butyl-L-threonyl-O-t-butyl-L-serine methyl ester”, the step yield ([1]; coupling step) was 73.1%.
“N-α-Benzyloxycarbonyl-N^ε -t-butyloxycarbonyl-L-lysyl-L-asparaginyl-L-phenylalanyl-L-phenylalaine methyl ester” gave a step yield ([1]; coupling step) of 67.0%.
With “N-ε-t-Butyloxycarbonyl-L-lysyl-L-asparaginyl-L-phenylalanyl-L-phenylalanyl-L-tryptophyl-N-ε-t-butyloxycarbonyl-L-lysyl-O-t-butyl-L-threonyl-L-phenylalanyl-O-t-butyl-L-threonyl-O-t-butyl-L-serine methyl ester” the step yield ([1]; late stage modification step) was 67.2%.
Substance “PEPTIDE1{C.K.N.F.F.W.K.T.F.T.S.C.[Aeg]}$$$$V2.0” has a crude mass ([2]; scale 0.734 mmol) of 1.09 g.
“PEPTIDE1{[Aeg].C.K.N.F.F.W.K.T.F.T.S.C}$$$$V2.0” showed a step yield ([1]; late stage modification step) of 41.9%.
For “PEPTIDE1{[Aeg].C.K.N.F.F.[dW].K.T.F.T.S.C}$$$$V2.0”, the crude mass ([3]; scale 0.773 mmole) was 773 mg.
“PEPTIDE1{[Aeg].C.K.N.F.F.[dW].K.T.F.T.S.C}$PEPTIDE1,PEPTIDE1,2:R3-13:R3$$$V2.0” gave an oxidative folding yield [1] of 44.7%.
Work on “PEPTIDE1{[Aeg].[Aeg].C.K.N.F.F.W.K.T.F.T.S.C}$$$$V2.0” yielded a step yield ([1]; late stage modification step) of 36.5%.
